These are yes or no findings as the source states them, for the method shown.
Key:
Experiment in all cases: ELISA; solid-phase assay: biotin-peptides (50 µg.mL^−1) on microtitration wells coated with 1 µg of protein, detected with HRP-coupled extravidin; in competition collagelin was mixed with GPVI-Fc, 9O12.2 IgG or 3J24.2 IgG (50 µg.mL^−1 each) before addition to collagen-coated wells; both purified
rat vitronectin (rat) = target: rat vitronectin (rat)
murine laminin (murine) = target: murine laminin (murine)
[1] = target: human fibronectin (human)

Measured: binding

B1: cyclic control peptide Pc, biotinylated (B-Pc) (peptide)
peptide: SGSGCGPQGARGLTGASAGGPC
modifications: biotinylated at the N-terminus; cyclic
no binding (tested: 50 µg.mL^−1): all assays above

From paper PMC2680759, “Non-Invasive Molecular Imaging of Fibrosis Using a Collagen-Targeted Peptidomimetic of the Platelet Collagen Receptor Glycoprotein VI” (PLoS ONE, 2009)
